{"source": "patent US10000641B2", "about": "“Method and composition for preventing corrosion of metal surfaces” (Ecolab USA Inc., priority 2010, dated 2018)", "assay": "cyclic sweep (cyclic polarisation) test after the LPR Bubble test", "details": "10 ppm test chemical, sweep maximum ~250 mV"}
{"substance": "Na Oleyl amphoacetate", "values": [{"measurement": "Cyclic sweep: potential at which current density rose above 1 mA/cm2", "setting": "Brine A", "result": 81, "unit": "mV"}, {"measurement": "Cyclic sweep: potential at which current density rose above 1 mA/cm2", "setting": "Brine B", "result": 250, "unit": "mV"}]}
